Columns and labels:
A549 cells = test: Crystal violet cell viability / antiproliferative assay, A549; assay type: cell-based, human
Description: (§1) Human non-small-cell lung cancer cell lines A549 and H1975 and the human bronchial epithelial BEAS-2B cell line were purchased from ATCC (Manassas, VA). Cells were cultured in Roswell Park Memorial Institute (RPMI)-1640 media supplemented with 10% v/v fetal bovine serum, 100 U·mL^–1 penicillin, and 100 μg·mL^–1 streptomycin. Cells were grown in a humidified atmosphere at 37 °C and 5% CO2.
(§2) Crystal violet staining was used to assess cell viability. Cells were seeded in a 24-well plate and incubated with 20 μM concentration of compounds 1a, 1c, 2a, and 2c and tamoxifen, 5-fluorouracil, and cisplatin, with or without 50 μM NAC. After 72 h, the medium was discarded and cells were stained for 30 min with 5% w/v crystal violet solution in 66% v/v methanol, 200 μL per well. After staining, the crystal violet solution was removed, and the 24-well plate was washed with water to eliminate the excess solution. When dried, the plates were photographed. Quantitation of crystal violet staining was performed after solubilizing the dye in 10% acetic acid, 400 μL per well, and reading the absorbance of each well at 540 nm (HT Synergy 96-well microplate reader, Bio-Tek Instruments, Winooski, VT). The relative absorbance of untreated cells was considered as 100% viability; results were expressed as a percentage of viable cells vs untreated cells. […]

H1975 cells = test: Crystal violet cell viability / antiproliferative assay, H1975; assay type: cell-based, human
Description: as §1, §2

BEAS-2B cells = test: Crystal violet cell viability / antiproliferative assay, BEAS-2B; assay type: cell-based; conditions: nonmalignant human bronchial epithelium BEAS-2B cells, treatment time 72 h
Description: as §1, §2

With CC/C(=C(\c1ccccc1)c1ccc(OCCN(C)C)cc1)c1ccccc1 [tamoxifen, reference compound] as the compound, how does the “Selectivity index SInd, A549” value (A549 cells; IC50(BEAS-2B)/IC50(A549), 72 h) read?
The value was 0.1.

What about the IC50 (A549 cells; human NSCLC A549 cells, treatment time 72 h) of the same compound?
Its IC50 is 72 ± 9 µM.

What about the “Selectivity index SInd, H1975” value (H1975 cells; IC50(BEAS-2B)/IC50(H1975), 72 h) of the same compound?
Its value is 0.2.

What about the IC50 (H1975 cells; NCI-H1975, human NSCLC H1975 cells, treatment time 72 h) of the same compound?
Its IC50 is 37 ± 5 µM.

And the IC50 (BEAS-2B cells)?
Its IC50 is 9 ± 0.2 µM.

Reference: article PMC9490837, “Electronic Coupling in 1,2,3-Triazole Bridged Ferrocenes and Its Impact on Reactive Oxygen Species Generation and Deleterious Activity in Cancer Cells” (Inorganic Chemistry, 2022)
